The target of the assay is human angiopoietin-2 (human) (UniProt O15123). Nature of the assay: ELISA at one concentration: plate coated with conditioned medium of 293T cells expressing full-length hAng-2 (aa 1-495, C-terminal 6xHis); binder at 1 µg/ml; HRP anti-human or anti-mouse IgG; O.D. 370; control pCDNA3 vector medium.

Amino acid sequences for entries named in this document (tags omitted). Residues count along the entry.
UniProt O15123, residues 19-496: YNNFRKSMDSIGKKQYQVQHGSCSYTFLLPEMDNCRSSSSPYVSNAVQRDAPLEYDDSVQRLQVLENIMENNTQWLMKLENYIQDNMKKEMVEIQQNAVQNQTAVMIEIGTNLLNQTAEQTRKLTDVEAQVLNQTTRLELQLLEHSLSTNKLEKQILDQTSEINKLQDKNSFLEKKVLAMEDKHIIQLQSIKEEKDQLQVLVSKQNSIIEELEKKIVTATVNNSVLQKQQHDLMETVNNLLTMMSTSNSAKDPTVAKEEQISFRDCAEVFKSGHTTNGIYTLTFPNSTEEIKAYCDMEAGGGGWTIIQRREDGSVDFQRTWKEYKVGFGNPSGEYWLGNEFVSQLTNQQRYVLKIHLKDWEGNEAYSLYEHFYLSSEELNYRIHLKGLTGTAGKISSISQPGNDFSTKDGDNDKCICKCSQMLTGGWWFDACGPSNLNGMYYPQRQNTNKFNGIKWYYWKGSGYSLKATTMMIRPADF
UniProt Q02763, residues 23-748: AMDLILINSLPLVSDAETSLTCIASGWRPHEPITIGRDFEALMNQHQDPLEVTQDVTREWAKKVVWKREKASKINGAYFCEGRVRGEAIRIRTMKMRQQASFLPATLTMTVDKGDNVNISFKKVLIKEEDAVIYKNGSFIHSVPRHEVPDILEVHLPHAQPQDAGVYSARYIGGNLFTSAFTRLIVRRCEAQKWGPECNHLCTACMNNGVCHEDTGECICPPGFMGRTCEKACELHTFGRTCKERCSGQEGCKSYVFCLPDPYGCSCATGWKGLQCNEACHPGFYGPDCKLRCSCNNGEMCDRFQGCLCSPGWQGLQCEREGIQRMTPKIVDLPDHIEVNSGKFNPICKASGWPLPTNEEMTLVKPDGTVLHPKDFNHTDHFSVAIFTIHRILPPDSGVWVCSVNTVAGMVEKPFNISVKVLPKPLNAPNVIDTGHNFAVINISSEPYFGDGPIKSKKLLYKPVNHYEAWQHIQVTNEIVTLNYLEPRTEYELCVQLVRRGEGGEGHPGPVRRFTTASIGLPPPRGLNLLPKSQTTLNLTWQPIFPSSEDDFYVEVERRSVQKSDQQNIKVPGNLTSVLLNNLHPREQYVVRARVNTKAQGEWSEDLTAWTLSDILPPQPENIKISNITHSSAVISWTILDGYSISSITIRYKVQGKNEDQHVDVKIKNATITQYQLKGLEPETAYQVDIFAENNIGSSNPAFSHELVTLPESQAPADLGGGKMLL

These are yes or no findings as the source states them, for the method shown. Some results given as binding are weak or reduced against the parent protein; the word gives no strength.

As to “Tie2-Fc (from UniProt Q02763 23-748) (Fc fusion)”, the binding entry is listed as “binds”.
